PubChem BioAssay AID1259405, NCATS | 2018

Aim: 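Mouse-designed siRNAs used to find CHO productivity engineering targets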 (primary screen)
Cell system: Chinese hamster CHO-K1 ovary cells with stable secreted eGFP expression
Knock-down reagent: single siRNA against mouse genes, 0.8 pmol siRNA per well (2 µl of 400 nM stock)
Timing: 3 days
Measurement: 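Per-well intracellular GFP measured by laser scanning cytometry, plus viability from ATP luminescence, each relative to plate median of non-targeting control wells, in %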
Scale: GFP, % of control: higher = more GFP per well, higher productivity; viability (ATP), % of control: higher = more viable cells (more ATP)
Rule for the call: 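Called active when intracellular GFP, relative to negative control, is at or above 120%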
Shown is an unselected part of about 50,000 reagents tested. About 4,000 of them (8%) were called active. 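Mouse siRNA library applied to hamster cells; one well for each siRNA.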 No sequences are given here.

gene symbol | PubChem SID | GFP, % of control | viability (ATP), % of control | Call
Hspg2 (perlecan (heparan sulfate proteoglycan 2)) | SID363553853 | 59.1 | 68 | inactive
Hspg2 (perlecan (heparan sulfate proteoglycan 2)) | SID363561810 | 51.5 | 63.2 | inactive
Hspg2 (perlecan (heparan sulfate proteoglycan 2)) | SID363565548 | 119 | 85.3 | inactive
Qtrt2 (queuine tRNA-ribosyltransferase accessory subunit 2) | SID363545220 | 87.5 | 80 | inactive
Qtrt2 (queuine tRNA-ribosyltransferase accessory subunit 2) | SID363548733 | 66.4 | 58.5 | inactive
Qtrt2 (queuine tRNA-ribosyltransferase accessory subunit 2) | SID363562539 | 45 | 48 | inactive
Slc29a3 | SID363574853 | 104 | 91.2 | inactive
Slc29a3 | SID363575909 | 40.2 | 74.3 | inactive
Slc29a3 | SID363580485 | 85.4 | 101 | inactive
Pabpc5 (poly(A) binding protein, cytoplasmic 5) | SID363569194 | 101 | 117 | inactive
Pabpc5 (poly(A) binding protein, cytoplasmic 5) | SID363583626 | 86 | 74.7 | inactive
Tsks (testis-specific serine kinase substrate) | SID363581777 | 113 | 76.2 | inactive
Tsks (testis-specific serine kinase substrate) | SID363589271 | 105 | 91.4 | inactive
Gemin4 (gem nuclear organelle associated protein 4) | SID363540094 | 61.4 | 70.9 | inactive
Gemin4 (gem nuclear organelle associated protein 4) | SID363561395 | 26.6 | 25.5 | inactive
Gemin4 (gem nuclear organelle associated protein 4) | SID363564431 | 71.5 | 95 | inactive
Aqp7 (aquaporin 7) | SID363574751 | 44.5 | 43.8 | inactive
Aqp7 (aquaporin 7) | SID363575807 | 43.3 | 61.8 | inactive
Aqp7 (aquaporin 7) | SID363580383 | 144 | 99.1 | active
Anxa9 (annexin A9) | SID363570328 | 82 | 93.9 | inactive
Anxa9 (annexin A9) | SID363576664 | 81.9 | 85 | inactive
Anxa9 (annexin A9) | SID363579832 | 56.3 | 42.2 | inactive
Bche (butyrylcholinesterase) | SID363570150 | 101 | 86.5 | inactive
Bche (butyrylcholinesterase) | SID363576486 | 93.9 | 82.4 | inactive
Bche (butyrylcholinesterase) | SID363579654 | 57.4 | 34.5 | inactive
Elavl3 (ELAV like RNA binding protein 3) | SID363569644 | 123 | 91.5 | active
Elavl3 (ELAV like RNA binding protein 3) | SID363577388 | 79.7 | 80.1 | inactive
Elavl3 (ELAV like RNA binding protein 3) | SID363578796 | 83.2 | 77.7 | inactive
Hsdl2 (hydroxysteroid dehydrogenase like 2) | SID363575094 | 56.2 | 59.3 | inactive
Hsdl2 (hydroxysteroid dehydrogenase like 2) | SID363580726 | 55 | 55.2 | inactive
Hsdl2 (hydroxysteroid dehydrogenase like 2) | SID363582838 | 91.3 | 84.9 | inactive
Elac2 (elaC ribonuclease Z 2) | SID363570000 | 127 | 138 | active
Elac2 (elaC ribonuclease Z 2) | SID363577040 | 70.8 | 99.2 | inactive
Elac2 (elaC ribonuclease Z 2) | SID363578448 | 134 | 130 | active
Psmd12 (proteasome (prosome, macropain) 26S subunit, non-ATPase, 12) | SID363554030 | 33 | 15.6 | inactive
Psmd12 (proteasome (prosome, macropain) 26S subunit, non-ATPase, 12) | SID363561987 | 63.2 | 41.9 | inactive
Psmd12 (proteasome (prosome, macropain) 26S subunit, non-ATPase, 12) | SID363565725 | 33.3 | 17.2 | inactive
Synb (syncytin b) | SID363539530 | 77.7 | 74.2 | inactive
Synb (syncytin b) | SID363560831 | 111 | 66.1 | inactive
Synb (syncytin b) | SID363564921 | 83.7 | 89.3 | inactive
Dpm3 (dolichyl-phosphate mannosyltransferase polypeptide 3) | SID363539604 | 105 | 103 | inactive
Dpm3 (dolichyl-phosphate mannosyltransferase polypeptide 3) | SID363560905 | 115 | 101 | inactive
Dpm3 (dolichyl-phosphate mannosyltransferase polypeptide 3) | SID363564995 | 36.4 | 24.6 | inactive

4 entries already listed, arranged by “viability (ATP), % of control”, highest first:
gene symbol | PubChem SID | GFP, % of control | viability (ATP), % of control | Call
Pabpc5 (poly(A) binding protein, cytoplasmic 5) | SID363569194 | 101 | 117 | inactive
Slc29a3 | SID363580485 | 85.4 | 101 | inactive
Pabpc5 (poly(A) binding protein, cytoplasmic 5) | SID363583626 | 86 | 74.7 | inactive
Slc29a3 | SID363575909 | 40.2 | 74.3 | inactive

The listing continues:
gene symbol | PubChem SID | GFP, % of control | viability (ATP), % of control | Call
Tph1 (tryptophan hydroxylase 1) | SID363572825 | 72 | 74.3 | inactive
Tph1 (tryptophan hydroxylase 1) | SID363577401 | 62 | 39.1 | inactive
Tph1 (tryptophan hydroxylase 1) | SID363580921 | 60.5 | 65.5 | inactive
Galr1 (galanin receptor 1) | SID363571101 | 188 | 86.8 | active
Galr1 (galanin receptor 1) | SID363571453 | 62.6 | 65.3 | inactive
Galr1 (galanin receptor 1) | SID363571805 | 72.4 | 56.3 | inactive
Ppcs (phosphopantothenoylcysteine synthetase) | SID363541231 | 80.8 | 52.5 | inactive
Ppcs (phosphopantothenoylcysteine synthetase) | SID363555858 | 61 | 41.8 | inactive
Ppcs (phosphopantothenoylcysteine synthetase) | SID363566147 | 75.2 | 63.2 | inactive
Tdp1 (tyrosyl-DNA phosphodiesterase 1) | SID363547378 | 102 | 104 | inactive
Tdp1 (tyrosyl-DNA phosphodiesterase 1) | SID363558147 | 73.5 | 66.1 | inactive
Tdp1 (tyrosyl-DNA phosphodiesterase 1) | SID363559905 | 72.4 | 76.9 | inactive
Klk10 (kallikrein related-peptidase 10) | SID363574513 | 72.5 | 88.7 | inactive
Klk10 (kallikrein related-peptidase 10) | SID363575569 | 165 | 135 | active
Klk10 (kallikrein related-peptidase 10) | SID363580145 | 12.1 | 39.2 | inactive
Glrx3 (glutaredoxin 3) | SID363573031 | 86.3 | 77.2 | inactive
Glrx3 (glutaredoxin 3) | SID363577607 | 75.4 | 65.6 | inactive
Glrx3 (glutaredoxin 3) | SID363581127 | 66.2 | 61.6 | inactive
Tyw3 (tRNA-yW synthesizing protein 3 homolog (S. cerevisiae)) | SID363552118 | 67.8 | 60.6 | inactive
Tyw3 (tRNA-yW synthesizing protein 3 homolog (S. cerevisiae)) | SID363585254 | 73.3 | 82.3 | inactive
Tyw3 (tRNA-yW synthesizing protein 3 homolog (S. cerevisiae)) | SID363585605 | 105 | 132 | inactive
Mid1ip1 | SID363543821 | 54.5 | 59.8 | inactive
Mid1ip1 | SID363551557 | 41.8 | 50.5 | inactive
Mid1ip1 | SID363559162 | 95.8 | 75.3 | inactive
Lpcat2b (lysophosphatidylcholine acyltransferase 2B) | SID363553600 | 73.8 | 71.1 | inactive
Lpcat2b (lysophosphatidylcholine acyltransferase 2B) | SID363561557 | 48.3 | 49 | inactive
Lpcat2b (lysophosphatidylcholine acyltransferase 2B) | SID363565295 | 124 | 81.3 | active
Tnmd (tenomodulin) | SID363541927 | 67.9 | 68.1 | inactive
Tnmd (tenomodulin) | SID363553519 | 80.1 | 74.1 | inactive
Tnmd (tenomodulin) | SID363566843 | 48.3 | 81.8 | inactive
C4b (complement C4B) | SID363553570 | 79.2 | 59.1 | inactive
C4b (complement C4B) | SID363561527 | 83.3 | 71.1 | inactive
C4b (complement C4B) | SID363565265 | 76 | 63.1 | inactive
Arhgef7 (Rho guanine nucleotide exchange factor) | SID363570025 | 107 | 73.6 | inactive
Arhgef7 (Rho guanine nucleotide exchange factor) | SID363576361 | 174 | 56.2 | active
Arhgef7 (Rho guanine nucleotide exchange factor) | SID363579529 | 52.7 | 54.1 | inactive
St3gal4 (ST3 beta-galactoside alpha-2,3-sialyltransferase 4) | SID363570466 | 74.8 | 112 | inactive
St3gal4 (ST3 beta-galactoside alpha-2,3-sialyltransferase 4) | SID363579266 | 115 | 102 | inactive
St3gal4 (ST3 beta-galactoside alpha-2,3-sialyltransferase 4) | SID363583138 | 91.2 | 123 | inactive
Tbc1d2b (TBC1 domain family, member 2B) | SID363545257 | 79.5 | 41.8 | inactive
Tbc1d2b (TBC1 domain family, member 2B) | SID363548770 | 82.3 | 75.2 | inactive
Tbc1d2b (TBC1 domain family, member 2B) | SID363562576 | 27.3 | 55.6 | inactive
